Experimental data from publication doi:10.1101/2022.11.15.516651.
No constants are given. Whether binding was seen depends on the method and setting. Binding seen in cells or lysates may run through a third protein. Some binding calls cover weakened binding; strength is not graded here.

The chains behind the UniProt entries cited, without tags or fusion partners. Where a name states a change or a piece, a line headed by the entry shows the natural chain unless it says otherwise. A line that says so, or that is headed by a name, gives the form on record, which may keep a tag or linker. Residues count along the entry.
FLAG-SLC3A2 WTseq (P08195, residues 66-630): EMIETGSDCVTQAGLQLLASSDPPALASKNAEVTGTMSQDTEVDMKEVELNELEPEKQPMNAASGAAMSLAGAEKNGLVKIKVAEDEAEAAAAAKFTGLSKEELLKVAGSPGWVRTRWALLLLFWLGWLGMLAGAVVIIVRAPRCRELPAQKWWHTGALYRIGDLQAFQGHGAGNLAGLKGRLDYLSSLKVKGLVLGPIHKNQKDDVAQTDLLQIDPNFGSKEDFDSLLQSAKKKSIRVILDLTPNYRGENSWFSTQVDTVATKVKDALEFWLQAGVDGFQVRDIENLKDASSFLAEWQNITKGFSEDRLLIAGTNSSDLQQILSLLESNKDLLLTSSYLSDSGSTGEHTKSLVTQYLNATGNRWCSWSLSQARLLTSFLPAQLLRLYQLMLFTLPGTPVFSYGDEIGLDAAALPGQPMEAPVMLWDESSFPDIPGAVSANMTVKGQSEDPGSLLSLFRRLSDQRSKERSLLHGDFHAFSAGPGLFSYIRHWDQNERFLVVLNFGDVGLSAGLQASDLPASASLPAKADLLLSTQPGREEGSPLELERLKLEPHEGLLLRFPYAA
FLAG-SLC3A2 N365D (P08195, form named): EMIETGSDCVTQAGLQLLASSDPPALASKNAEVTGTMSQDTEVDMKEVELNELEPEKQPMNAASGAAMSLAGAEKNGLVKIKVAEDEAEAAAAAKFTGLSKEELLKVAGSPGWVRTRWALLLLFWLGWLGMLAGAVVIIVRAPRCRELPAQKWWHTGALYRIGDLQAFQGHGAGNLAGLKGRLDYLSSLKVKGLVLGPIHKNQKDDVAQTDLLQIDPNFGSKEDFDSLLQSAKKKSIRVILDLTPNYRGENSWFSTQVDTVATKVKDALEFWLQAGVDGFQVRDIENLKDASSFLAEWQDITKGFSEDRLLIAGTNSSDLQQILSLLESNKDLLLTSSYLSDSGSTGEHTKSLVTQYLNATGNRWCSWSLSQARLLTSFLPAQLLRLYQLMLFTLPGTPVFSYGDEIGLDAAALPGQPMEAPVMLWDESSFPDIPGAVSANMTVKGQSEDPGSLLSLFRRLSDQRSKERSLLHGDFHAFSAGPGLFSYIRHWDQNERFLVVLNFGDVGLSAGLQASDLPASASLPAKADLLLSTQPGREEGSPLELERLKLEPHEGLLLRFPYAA
UniProt P17931: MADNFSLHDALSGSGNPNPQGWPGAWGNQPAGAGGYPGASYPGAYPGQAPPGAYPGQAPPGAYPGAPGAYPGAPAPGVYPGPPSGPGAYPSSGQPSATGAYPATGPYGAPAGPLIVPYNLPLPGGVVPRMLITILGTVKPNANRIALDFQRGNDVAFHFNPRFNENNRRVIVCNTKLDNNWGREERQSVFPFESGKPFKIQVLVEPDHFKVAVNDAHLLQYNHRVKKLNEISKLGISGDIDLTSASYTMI

Legend:
[1] = molecular target: FLAG-SLC3A2 WTseq (human) (UniProt P08195); test: co-IP
[2] = molecular target: FLAG-SLC3A2 N365D (human) (UniProt P08195); test: co-IP

binding [1]: binds
binding [2]: binds
Substance: Gal3-488 (from UniProt P17931 1-250)
